The test has as its target Flag-NEK6-WT (human) (UniProt Q9HC98). Description: affinity purification with mass spectrometry; IP by Flag tag from NCI/ADR-RES cells loaded with control vector or Flag-NEK6; silver-stained SDS-PAGE gel cut and analysed by LC-MS/MS.

By UniProt entry, the sequences of proteins in these tests, tags left out.
UniProt Q9HC98: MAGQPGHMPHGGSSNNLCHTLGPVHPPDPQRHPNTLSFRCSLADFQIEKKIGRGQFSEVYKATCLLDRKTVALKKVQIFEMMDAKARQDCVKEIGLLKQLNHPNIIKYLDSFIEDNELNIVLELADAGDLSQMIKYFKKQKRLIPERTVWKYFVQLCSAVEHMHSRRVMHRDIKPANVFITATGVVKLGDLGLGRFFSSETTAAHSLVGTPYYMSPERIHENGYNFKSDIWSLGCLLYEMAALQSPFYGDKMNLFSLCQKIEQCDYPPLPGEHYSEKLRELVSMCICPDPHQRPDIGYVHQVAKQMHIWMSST
UniProt O43524: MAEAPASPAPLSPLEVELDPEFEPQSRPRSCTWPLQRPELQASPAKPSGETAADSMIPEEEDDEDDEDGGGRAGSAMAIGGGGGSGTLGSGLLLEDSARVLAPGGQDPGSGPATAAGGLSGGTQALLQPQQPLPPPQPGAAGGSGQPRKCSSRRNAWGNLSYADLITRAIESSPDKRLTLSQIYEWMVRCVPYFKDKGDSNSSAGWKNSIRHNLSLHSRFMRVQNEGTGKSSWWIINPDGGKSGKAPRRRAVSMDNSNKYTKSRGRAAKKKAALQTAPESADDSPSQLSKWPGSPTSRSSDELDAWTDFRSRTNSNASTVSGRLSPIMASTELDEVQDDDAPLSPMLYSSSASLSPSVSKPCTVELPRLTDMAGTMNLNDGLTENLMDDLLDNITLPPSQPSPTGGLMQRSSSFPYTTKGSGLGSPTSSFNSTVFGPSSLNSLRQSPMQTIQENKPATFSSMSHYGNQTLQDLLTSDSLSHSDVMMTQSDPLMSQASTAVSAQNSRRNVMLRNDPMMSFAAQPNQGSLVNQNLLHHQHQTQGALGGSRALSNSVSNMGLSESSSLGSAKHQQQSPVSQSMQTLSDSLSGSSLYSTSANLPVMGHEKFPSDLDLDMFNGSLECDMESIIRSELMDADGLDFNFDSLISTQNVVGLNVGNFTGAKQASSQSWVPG

Results are given in words; binding and its absence hold for the method and conditions named. In cells and extracts the contact can be indirect. These calls come from enrichment with a bait or labelling near it, and not all partners need be listed.

As to “FOXO3 (endogenous) (from UniProt O43524 1-673)”, the binding entry is “binds”.
